Experimental data reported in article PMC7552406.
Numbering of substitutions follows the chain as printed. No constants are given. Whether binding was seen depends on the method and setting. In cells and extracts the contact can be indirect. Some binding calls cover weakened binding; strength is not graded here. Where a sequence is shown, tags or fusion partners need not be part of it.

Chains of the proteins cited; added tags and fusions are not shown. Residues count along the entry.
UniProt Q07021, residues 74-282: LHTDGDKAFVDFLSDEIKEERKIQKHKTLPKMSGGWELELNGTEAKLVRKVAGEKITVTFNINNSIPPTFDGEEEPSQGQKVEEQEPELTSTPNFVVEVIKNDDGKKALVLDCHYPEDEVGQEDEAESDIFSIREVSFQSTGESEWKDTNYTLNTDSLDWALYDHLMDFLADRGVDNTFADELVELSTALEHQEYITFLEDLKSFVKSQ

T1: FLAG-tagged RECQ4 wildtype (WT) (human) (UniProt O94761)
T1 sequence: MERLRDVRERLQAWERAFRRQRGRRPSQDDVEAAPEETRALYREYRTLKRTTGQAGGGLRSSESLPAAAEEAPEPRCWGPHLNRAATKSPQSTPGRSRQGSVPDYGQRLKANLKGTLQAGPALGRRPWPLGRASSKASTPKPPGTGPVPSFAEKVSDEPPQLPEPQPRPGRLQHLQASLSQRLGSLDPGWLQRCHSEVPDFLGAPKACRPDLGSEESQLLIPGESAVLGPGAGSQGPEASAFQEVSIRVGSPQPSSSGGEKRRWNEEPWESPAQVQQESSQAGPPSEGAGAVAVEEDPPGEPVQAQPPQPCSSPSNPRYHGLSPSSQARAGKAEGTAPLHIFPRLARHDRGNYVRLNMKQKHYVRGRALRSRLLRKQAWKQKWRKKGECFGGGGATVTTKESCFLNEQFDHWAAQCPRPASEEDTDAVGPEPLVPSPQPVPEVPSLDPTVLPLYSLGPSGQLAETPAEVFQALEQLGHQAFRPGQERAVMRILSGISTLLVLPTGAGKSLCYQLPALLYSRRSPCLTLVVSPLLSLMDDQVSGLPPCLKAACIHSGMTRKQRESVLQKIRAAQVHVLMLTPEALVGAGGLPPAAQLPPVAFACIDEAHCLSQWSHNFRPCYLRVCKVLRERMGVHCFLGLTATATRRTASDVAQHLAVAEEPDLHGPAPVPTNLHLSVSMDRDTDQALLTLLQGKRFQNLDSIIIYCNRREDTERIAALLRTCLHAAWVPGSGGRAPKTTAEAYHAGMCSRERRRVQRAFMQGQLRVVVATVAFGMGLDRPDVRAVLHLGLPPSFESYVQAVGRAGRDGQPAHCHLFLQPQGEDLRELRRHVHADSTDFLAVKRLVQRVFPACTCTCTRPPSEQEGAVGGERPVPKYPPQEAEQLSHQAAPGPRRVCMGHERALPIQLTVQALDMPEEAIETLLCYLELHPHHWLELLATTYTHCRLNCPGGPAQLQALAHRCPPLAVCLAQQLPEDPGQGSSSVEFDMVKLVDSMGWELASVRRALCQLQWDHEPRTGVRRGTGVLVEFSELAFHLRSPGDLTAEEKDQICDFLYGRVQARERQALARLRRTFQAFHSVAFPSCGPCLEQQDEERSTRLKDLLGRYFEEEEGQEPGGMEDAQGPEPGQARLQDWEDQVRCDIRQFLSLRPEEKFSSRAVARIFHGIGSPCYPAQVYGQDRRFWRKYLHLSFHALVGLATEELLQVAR

T2: FLAG-RECQ4 ID mutant, del(A420-A463) (human) (UniProt O94761)
T2 sequence: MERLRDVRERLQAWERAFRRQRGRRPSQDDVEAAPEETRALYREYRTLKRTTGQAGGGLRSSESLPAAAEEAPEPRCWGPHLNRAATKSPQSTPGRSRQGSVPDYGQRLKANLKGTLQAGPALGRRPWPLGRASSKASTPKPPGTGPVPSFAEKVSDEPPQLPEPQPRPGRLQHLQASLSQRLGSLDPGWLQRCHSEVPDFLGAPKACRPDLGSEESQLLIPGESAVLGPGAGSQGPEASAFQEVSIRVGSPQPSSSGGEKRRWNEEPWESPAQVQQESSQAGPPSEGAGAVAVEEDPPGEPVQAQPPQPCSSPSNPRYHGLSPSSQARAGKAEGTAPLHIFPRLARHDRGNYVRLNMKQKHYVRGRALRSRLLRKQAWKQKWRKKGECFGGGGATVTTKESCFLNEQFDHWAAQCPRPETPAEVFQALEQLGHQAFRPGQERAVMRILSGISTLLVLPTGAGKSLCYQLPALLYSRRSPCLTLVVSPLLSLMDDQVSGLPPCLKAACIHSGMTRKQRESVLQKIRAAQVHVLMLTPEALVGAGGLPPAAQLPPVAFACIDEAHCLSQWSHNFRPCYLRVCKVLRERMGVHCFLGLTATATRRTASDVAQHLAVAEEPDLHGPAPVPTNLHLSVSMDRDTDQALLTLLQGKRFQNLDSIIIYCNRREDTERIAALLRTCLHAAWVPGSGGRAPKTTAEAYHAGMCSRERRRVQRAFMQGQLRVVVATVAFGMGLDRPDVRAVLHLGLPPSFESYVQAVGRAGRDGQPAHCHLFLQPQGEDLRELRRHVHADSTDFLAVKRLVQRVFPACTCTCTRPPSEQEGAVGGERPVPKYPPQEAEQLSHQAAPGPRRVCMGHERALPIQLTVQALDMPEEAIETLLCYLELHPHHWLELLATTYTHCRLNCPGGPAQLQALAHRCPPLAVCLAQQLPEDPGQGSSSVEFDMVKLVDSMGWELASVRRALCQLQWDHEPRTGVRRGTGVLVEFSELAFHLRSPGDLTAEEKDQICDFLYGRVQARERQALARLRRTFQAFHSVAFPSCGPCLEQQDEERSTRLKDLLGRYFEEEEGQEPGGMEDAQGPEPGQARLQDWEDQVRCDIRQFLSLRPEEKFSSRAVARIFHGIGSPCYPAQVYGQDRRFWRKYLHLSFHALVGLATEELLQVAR

T3: FLAG-RECQ4 P466L mutant (human) (UniProt O94761)
T3 sequence: T1 sequence with P466L

B1: TWINKLE mitochondrial replication helicase (enzyme, UniProt Q96RR1 32-684)
chain: APGPPRRRYRKETLQALDMPVLPVTATEIRQYLRGHGIPFQDGHSCLRALSPFAESSQLKGQTGVTTSFSLFIDKTTGHFLCMTSLAEGSWEDFQASVEGRGDGAREGFLLSKAPEFEDSEEVRRIWNRAIPLWELPDQEEVQLADTMFGLTKVTDDTLKRFSVRYLRPARSLVFPWFSPGGSGLRGLKLLEAKCQGDGVSYEETTIPRPSAYHNLFGLPLISRRDAEVVLTSRELDSLALNQSTGLPTLTLPRGTTCLPPALLPYLEQFRRIVFWLGDDLRSWEAAKLFARKLNPKRCFLVRPGDQQPRPLEALNGGFNLSRILRTALPAWHKSIVSFRQLREEVLGELSNVEQAAGLRWSRFPDLNRILKGHRKGELTVFTGPTGSGKTTFISEYALDLCSQGVNTLWGSFEISNVRLARVMLTQFAEGRLEDQLDKYDHWADRFEDLPLYFMTFHGQQSIRTVIDTMQHAVYVYDICHVIIDNLQFMMGHEQLSTDRIAAQDYIIGVFRKFATDNNCHVTLVIHPRKEDDDKELQTASIFGSAKASQEADNVLILQDRKLVTGPGKRYLQVSKNRFDGDVGVFPLEFNKNSLTFSIPPKNKARLKKIKDDTGPVAKKPSSGKKGATTQNSEICSGQAPTPDQPDTSKRSK

How the values were obtained:
Assay in all cases: co-IP; immunopurification of FLAG-RECQ4 complexes from whole cell extracts of stable RECQ4 KD HEK293 cells expressing FLAG-RECQ4 WT, ID or P466L; lysis in 50 mM Tris-HCl pH 7.4, 150 mM NaCl, 1 mM EDTA, 0.5% Triton X-100, 10% glycerol; Western blot for p32, TWINKLE and TFAM
[1] = biological target: T1, FLAG-tagged RECQ4 wildtype (WT) (human)
[2] = biological target: T2, FLAG-RECQ4 ID mutant, del(A420-A463) (human)
[3] = biological target: T3, FLAG-RECQ4 P466L mutant (human)

binding [1]	binding [2]	binding [3]	Molecule
binds	–	–	Mitochondrial membrane protein p32 (from UniProt Q07021 74-282)
binds	binds	binds	B1
